Paper doi:10.1101/477745
Results are given in words; binding and its absence hold for the method and conditions named. For part of these data: In cells and extracts the contact can be indirect. Some entries that bind do so weakly or less than the wild type. For part of these data: Sequences can lack the tags named with a protein.

T1: Era-T25 (S. aureus) (UniProt Q2FGF6)
T1 sequence: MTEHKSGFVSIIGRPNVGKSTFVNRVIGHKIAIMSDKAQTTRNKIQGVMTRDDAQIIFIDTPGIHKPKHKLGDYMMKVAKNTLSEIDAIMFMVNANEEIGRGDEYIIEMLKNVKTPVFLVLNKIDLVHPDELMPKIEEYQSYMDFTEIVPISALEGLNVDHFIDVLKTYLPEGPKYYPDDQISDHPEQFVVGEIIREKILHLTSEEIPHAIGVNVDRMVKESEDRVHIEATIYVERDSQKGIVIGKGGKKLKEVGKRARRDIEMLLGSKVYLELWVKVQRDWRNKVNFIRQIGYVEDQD

T2: Era fused to SB (small bit of luciferase) (S. aureus) (UniProt Q2FGF6)
T2 sequence: T1 sequence

B1: Era-T25 (protein, UniProt Q2FGF6 1-299)
chain: T1 sequence
B2: CshA core helicase domain (aa 1-382) fused to LB (domain or fragment, UniProt Q2FF45 1-382)
chain: MQNFKELGISDNTVQSLESMGFKEPTPIQKDSIPYALQGIDILGQAQTGTGKTGAFGIPLIEKVVGKQGVQSLILAPTRELAMQVAEQLREFSRGQGVQVVTVFGGMPIERQIKALKKGPQIVVGTPGRVIDHLNRRTLKTDGIHTLILDEADEMMNMGFIDDMRFIMDKIPAVQRQTMLFSATMPKAIQALVQQFMKSPKIIKTMNNEMSDPQIEEFYTIVKELEKFDTFTNFLDVHQPELAIVFGRTKRRVDELTSALISKGYKAEGLHGDITQAKRLEVLKKFKNDQINILVATDVAARGLDISGVSHVYNFDIPQDTESYTHRIGRTGRAGKEGIAVTFVNPIEMDYIRQIEDANGRKMSALRPPHRKEVLQAREDDI
B3: CshA RecA2 (aa 222-382) fused to LB (domain or fragment, UniProt Q2FF45 222-382)
chain: VKELEKFDTFTNFLDVHQPELAIVFGRTKRRVDELTSALISKGYKAEGLHGDITQAKRLEVLKKFKNDQINILVATDVAARGLDISGVSHVYNFDIPQDTESYTHRIGRTGRAGKEGIAVTFVNPIEMDYIRQIEDANGRKMSALRPPHRKEVLQAREDDI
B4: CshA RecA1 (aa 1-221) fused to LB (domain or fragment, UniProt Q2FF45 1-221)
chain: MQNFKELGISDNTVQSLESMGFKEPTPIQKDSIPYALQGIDILGQAQTGTGKTGAFGIPLIEKVVGKQGVQSLILAPTRELAMQVAEQLREFSRGQGVQVVTVFGGMPIERQIKALKKGPQIVVGTPGRVIDHLNRRTLKTDGIHTLILDEADEMMNMGFIDDMRFIMDKIPAVQRQTMLFSATMPKAIQALVQQFMKSPKIIKTMNNEMSDPQIEEFYTI
B5: Era fused to SB (small bit of luciferase) (protein, UniProt Q2FGF6 1-299)
chain: T1 sequence
B6: CshA disordered CT-region (aa 383-506) fused to LB (domain or fragment, UniProt Q2FF45 383-506)
chain: KEKVENWMSKESESRLKRISTELLNEYNDVDLVAALLQELVEANDEVEVQLTFEKPLSRKGRNGKPSGSRNRNSKRGNPKFDSKSKRSKGYSSKKKSTKKFDRKEKSSGGSRPMKGRTFADHQK

molecular target: T1, Era-T25 (S. aureus); assay: two-hybrid

binding | Binder
binds | B1

molecular target: T2, Era fused to SB (small bit of luciferase) (S. aureus); assay: split reporter

binding | Binder
binds | B2
no binding | B3
no binding | B4
binds | B5
no binding | B6
